Results taken from the supplement of paper PMC12819154, “High-throughput peptide-centric local stability assay extends protein–ligand identification to membrane proteins, tissues and bacteria” (Nature Structural & Molecular Biology, 2025).
This is one part of the list. Most entries show no effect beyond the scatter of the controls.

By UniProt entry, the sequences of proteins in these tests, tags left out. Where a name states a change or a piece, a line headed by the entry shows the natural chain unless it says otherwise.
UniProt O14770: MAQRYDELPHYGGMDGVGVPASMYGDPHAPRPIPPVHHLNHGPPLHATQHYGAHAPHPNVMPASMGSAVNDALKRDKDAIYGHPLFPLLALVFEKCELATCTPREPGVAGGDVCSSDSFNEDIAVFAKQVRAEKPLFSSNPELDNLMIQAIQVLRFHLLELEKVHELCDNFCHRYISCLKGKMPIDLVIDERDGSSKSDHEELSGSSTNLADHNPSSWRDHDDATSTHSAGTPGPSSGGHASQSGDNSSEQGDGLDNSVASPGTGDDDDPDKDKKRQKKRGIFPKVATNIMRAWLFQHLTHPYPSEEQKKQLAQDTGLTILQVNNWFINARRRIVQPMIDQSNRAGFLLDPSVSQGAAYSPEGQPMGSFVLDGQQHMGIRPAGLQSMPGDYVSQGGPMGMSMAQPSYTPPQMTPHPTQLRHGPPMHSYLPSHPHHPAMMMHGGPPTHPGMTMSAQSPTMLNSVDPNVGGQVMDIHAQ
UniProt O14628: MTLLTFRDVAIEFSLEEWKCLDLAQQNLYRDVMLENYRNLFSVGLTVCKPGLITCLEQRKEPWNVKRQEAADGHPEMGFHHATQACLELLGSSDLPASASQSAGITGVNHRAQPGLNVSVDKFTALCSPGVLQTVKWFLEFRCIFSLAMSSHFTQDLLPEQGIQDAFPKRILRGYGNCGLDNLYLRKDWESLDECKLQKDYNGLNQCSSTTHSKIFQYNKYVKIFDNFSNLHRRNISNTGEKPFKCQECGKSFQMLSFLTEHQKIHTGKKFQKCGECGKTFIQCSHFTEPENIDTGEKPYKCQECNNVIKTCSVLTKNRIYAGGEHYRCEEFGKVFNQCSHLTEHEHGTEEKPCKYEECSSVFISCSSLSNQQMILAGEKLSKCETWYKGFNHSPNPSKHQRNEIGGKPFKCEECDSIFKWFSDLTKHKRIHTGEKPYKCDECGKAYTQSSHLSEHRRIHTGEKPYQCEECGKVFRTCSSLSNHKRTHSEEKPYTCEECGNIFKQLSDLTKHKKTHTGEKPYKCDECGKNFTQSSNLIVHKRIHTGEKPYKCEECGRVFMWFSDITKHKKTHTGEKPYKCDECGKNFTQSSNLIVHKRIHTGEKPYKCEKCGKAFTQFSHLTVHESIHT
UniProt O14734: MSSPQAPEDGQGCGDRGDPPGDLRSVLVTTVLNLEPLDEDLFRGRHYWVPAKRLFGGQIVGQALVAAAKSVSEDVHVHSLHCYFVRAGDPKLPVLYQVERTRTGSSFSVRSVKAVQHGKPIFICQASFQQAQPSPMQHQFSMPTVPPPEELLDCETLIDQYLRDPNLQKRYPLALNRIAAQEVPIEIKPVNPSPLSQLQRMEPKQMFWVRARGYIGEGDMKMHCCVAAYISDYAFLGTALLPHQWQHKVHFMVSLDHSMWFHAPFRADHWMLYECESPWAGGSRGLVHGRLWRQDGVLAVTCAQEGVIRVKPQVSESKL
UniProt O15127: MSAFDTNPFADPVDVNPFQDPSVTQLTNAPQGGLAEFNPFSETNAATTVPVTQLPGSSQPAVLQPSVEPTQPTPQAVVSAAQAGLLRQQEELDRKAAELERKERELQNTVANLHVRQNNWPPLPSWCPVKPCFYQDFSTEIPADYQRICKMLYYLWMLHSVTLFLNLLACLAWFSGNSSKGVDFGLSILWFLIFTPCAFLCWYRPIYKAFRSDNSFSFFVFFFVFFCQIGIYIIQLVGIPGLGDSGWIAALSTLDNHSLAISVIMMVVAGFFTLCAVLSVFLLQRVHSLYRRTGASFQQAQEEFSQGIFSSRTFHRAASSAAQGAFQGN
UniProt O15530: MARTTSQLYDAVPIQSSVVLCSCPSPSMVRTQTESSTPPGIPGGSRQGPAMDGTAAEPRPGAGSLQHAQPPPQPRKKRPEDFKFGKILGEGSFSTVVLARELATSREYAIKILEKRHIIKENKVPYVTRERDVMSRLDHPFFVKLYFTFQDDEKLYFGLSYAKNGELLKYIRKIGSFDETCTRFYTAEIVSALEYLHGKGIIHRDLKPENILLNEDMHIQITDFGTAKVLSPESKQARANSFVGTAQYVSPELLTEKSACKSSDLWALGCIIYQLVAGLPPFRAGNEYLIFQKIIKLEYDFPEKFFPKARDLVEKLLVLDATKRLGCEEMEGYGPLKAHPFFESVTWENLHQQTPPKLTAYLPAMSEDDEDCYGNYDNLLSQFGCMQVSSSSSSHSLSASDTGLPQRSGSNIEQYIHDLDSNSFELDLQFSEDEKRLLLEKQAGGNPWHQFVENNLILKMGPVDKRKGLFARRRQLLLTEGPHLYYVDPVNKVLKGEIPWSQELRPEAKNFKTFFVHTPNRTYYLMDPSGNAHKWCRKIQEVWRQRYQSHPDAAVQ
UniProt O15116: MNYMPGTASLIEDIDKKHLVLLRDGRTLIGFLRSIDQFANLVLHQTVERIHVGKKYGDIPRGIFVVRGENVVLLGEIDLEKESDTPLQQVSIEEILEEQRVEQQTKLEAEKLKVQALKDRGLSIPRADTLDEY
UniProt O14964, whole entry: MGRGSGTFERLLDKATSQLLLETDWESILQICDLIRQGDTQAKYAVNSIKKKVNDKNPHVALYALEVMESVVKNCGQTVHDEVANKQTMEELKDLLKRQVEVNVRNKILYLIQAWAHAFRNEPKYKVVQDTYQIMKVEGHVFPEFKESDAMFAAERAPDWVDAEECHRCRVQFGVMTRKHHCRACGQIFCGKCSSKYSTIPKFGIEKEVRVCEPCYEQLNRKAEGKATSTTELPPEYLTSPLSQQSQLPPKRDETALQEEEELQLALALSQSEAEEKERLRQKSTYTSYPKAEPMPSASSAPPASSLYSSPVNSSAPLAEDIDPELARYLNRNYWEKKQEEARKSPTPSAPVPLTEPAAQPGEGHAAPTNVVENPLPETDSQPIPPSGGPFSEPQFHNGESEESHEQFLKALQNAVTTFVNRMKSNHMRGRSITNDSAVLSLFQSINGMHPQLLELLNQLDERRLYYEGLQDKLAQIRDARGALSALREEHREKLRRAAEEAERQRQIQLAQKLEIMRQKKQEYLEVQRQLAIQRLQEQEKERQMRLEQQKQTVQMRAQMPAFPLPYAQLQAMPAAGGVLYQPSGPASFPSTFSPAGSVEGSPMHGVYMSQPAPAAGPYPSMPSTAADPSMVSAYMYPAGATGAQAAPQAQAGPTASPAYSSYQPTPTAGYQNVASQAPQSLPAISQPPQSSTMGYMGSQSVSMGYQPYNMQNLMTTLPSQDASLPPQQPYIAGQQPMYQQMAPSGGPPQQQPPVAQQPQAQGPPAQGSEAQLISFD
UniProt O00487, whole entry: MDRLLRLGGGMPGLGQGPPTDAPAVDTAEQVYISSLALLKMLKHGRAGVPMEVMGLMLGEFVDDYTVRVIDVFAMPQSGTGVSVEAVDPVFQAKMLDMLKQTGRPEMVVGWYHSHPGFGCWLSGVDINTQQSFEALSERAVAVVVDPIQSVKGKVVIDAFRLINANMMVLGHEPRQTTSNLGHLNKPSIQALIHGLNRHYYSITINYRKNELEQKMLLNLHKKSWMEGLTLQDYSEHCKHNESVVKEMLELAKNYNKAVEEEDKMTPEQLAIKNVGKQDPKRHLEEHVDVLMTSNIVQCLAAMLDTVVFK
UniProt O15370: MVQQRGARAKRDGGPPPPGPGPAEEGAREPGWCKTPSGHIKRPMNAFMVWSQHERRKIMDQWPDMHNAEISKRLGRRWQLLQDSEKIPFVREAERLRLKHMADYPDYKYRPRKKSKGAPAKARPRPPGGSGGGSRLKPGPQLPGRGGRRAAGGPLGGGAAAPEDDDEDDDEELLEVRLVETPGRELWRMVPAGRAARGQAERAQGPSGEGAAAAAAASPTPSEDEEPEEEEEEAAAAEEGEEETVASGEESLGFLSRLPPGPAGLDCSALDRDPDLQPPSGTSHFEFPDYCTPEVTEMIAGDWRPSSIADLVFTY
UniProt O00764: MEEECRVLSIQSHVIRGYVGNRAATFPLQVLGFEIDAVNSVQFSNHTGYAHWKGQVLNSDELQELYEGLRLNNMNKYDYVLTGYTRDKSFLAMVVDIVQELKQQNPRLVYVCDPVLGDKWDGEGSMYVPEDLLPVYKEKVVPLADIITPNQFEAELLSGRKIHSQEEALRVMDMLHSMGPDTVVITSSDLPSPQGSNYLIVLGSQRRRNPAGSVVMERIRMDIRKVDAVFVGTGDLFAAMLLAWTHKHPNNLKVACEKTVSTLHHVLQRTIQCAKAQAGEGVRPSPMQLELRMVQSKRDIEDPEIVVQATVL
UniProt O15360: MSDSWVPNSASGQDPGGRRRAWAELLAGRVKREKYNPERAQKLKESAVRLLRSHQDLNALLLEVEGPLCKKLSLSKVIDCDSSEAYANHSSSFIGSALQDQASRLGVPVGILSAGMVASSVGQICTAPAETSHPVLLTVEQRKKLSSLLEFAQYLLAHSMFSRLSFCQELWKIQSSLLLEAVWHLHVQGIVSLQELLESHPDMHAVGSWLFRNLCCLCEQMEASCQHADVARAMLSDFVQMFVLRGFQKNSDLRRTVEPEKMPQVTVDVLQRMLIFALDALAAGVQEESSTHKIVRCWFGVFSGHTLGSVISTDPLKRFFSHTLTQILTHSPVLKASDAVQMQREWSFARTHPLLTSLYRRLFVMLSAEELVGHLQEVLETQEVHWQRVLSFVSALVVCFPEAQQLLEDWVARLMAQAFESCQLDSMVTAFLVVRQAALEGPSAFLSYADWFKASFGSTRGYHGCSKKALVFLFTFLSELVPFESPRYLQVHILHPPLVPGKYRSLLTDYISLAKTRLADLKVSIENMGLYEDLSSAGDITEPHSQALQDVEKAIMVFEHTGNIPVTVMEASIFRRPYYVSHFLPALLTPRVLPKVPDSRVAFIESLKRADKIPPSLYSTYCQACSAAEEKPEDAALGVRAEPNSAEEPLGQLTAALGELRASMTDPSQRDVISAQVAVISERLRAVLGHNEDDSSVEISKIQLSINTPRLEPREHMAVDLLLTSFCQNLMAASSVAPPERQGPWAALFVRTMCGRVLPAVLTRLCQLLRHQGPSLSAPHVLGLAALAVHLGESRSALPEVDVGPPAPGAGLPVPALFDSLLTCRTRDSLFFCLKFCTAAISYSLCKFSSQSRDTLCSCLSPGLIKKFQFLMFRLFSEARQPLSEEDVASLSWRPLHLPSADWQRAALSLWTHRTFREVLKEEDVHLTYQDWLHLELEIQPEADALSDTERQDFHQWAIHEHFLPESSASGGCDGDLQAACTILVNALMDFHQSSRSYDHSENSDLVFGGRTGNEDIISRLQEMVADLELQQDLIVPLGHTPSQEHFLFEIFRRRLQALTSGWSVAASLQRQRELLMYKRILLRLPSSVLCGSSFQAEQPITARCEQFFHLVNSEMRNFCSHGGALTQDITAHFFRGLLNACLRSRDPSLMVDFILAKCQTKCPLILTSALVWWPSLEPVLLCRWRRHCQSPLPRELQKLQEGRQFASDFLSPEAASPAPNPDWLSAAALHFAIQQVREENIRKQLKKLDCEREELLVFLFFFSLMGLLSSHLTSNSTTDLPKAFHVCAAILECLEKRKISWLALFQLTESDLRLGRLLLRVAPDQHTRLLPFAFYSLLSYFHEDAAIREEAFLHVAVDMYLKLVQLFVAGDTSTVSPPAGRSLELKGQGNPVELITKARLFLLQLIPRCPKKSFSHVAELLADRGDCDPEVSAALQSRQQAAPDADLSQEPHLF
UniProt O15265: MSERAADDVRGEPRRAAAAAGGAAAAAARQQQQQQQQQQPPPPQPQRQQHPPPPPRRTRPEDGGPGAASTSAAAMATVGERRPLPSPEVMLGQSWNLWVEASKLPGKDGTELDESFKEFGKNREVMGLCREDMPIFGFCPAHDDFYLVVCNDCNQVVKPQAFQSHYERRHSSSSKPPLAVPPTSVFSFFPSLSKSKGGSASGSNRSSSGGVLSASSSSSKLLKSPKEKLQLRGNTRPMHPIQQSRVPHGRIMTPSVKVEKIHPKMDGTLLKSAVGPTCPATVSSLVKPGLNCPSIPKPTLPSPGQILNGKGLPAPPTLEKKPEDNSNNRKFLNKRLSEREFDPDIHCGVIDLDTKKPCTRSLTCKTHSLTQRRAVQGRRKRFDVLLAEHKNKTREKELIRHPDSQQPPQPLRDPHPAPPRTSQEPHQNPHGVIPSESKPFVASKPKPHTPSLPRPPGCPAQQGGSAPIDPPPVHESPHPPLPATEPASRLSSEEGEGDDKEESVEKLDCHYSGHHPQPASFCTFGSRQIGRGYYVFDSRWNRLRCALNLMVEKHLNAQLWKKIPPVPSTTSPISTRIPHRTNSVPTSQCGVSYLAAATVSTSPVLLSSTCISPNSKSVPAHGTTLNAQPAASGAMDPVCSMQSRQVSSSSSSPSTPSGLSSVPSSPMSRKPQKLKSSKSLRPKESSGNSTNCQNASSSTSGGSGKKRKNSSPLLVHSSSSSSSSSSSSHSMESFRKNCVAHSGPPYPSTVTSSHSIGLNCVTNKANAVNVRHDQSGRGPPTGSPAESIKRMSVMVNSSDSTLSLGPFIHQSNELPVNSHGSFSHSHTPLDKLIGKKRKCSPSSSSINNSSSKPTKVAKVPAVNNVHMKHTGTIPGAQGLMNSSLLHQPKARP

Compound: Cc1nc(Nc2ncc(C(=O)Nc3c(C)cccc3Cl)s2)cc(N2CCN(CCO)CC2)n1 [dasatinib]
Test: log2 fold change of tryptic peptide abundance, ligand vs vehicle (limited proteolysis) (log2 ratio); higher = more trypsin-susceptible (destabilized)
Details: ligand concentration: 5 uM; sample: K562 cleared lysate

Target	log2 fold change
SMAD9 (peptide sequence: NSTIENTRR, peptide start residue: 320) (UniProt O15198)	-0.54
MEIS2 (peptide sequence: SDHEELSGSSTNLADHNPSSWR, peptide start residue: 198) (UniProt O14770)	0.0952
NKRF (peptide sequence: RDIEQIIR, peptide start residue: 604) (UniProt O15226)	-1.21
TCERG1 (peptide sequence: LIVAYVDDLDRR, peptide start residue: 1070) (UniProt O14776)	0.0886
KIF3B (peptide sequence: RPVSAVGYK, peptide start residue: 628) (UniProt O15066)	0.615
DVL1 (peptide sequence: TGGIGDSRPPSFHPNVASSR, peptide start residue: 109) (UniProt O14640)	-0.2
UniProt O14628 (peptide sequence: TFIQCSHFTEPENIDTGEKPYK, peptide start residue: 280)	-0.383
APAF1 (peptide sequence: AHEDEVLCCAFSTDDR, peptide start residue: 655) (UniProt O14727)	-0.893
ACOT8 (peptide sequence: GYIGEGDMK, peptide start residue: 213) (UniProt O14734)	0.528
AXIN1 (peptide sequence: GVGIKGETSTATPR, peptide start residue: 49) (UniProt O15169)	-0.463
MYO1C (peptide sequence: QKGDVVLQSDHVIETLTK, peptide start residue: 988) (UniProt O00159)	-0.244
SCAMP2 (peptide sequence: QQEELDR, peptide start residue: 88) (UniProt O15127)	0.335
UniProt O15042 (peptide sequence: EKEKELER, peptide start residue: 886)	0.652
UniProt O15530 (peptide sequence: TYYLMDPSGNAHKWCR, peptide start residue: 522)	0.458
AGPS (peptide sequence: RYPLSGMGLPTFK, peptide start residue: 117) (UniProt O00116)	-0.291
LSM1 (peptide sequence: DRGLSIPR, peptide start residue: 119) (UniProt O15116)	0.181
HGS (peptide sequence: ESDAMFAAER, peptide start residue: 147) (UniProt O14964)	0.12
UniProt O00487 (peptide sequence: SWMEGLTLQDYSEHCK, peptide start residue: 224)	0.128
CDC7 (peptide sequence: YALVDFGLAQGTHDTK, peptide start residue: 192) (UniProt O00311)	-0.417

Target	log2 fold change
UniProt A8MW92 (peptide sequence: DQDQIIAGVEKK, peptide start residue: 814)	0.705
UniProt C4AMC7 (peptide sequence: THVMLGAETEEKLFDAPLSISKR, peptide start residue: 199)	0.281
SOX12 (peptide sequence: WQLLQDSEKIPFVR, peptide start residue: 78) (UniProt O15370)	-0.157
CBX4 (peptide sequence: PKPLVVQVPTFAR, peptide start residue: 76) (UniProt O00257)	-0.84
PDXK (peptide sequence: IHSQEEALR, peptide start residue: 162) (UniProt O00764)	0.593
SPTLC2 (peptide sequence: ANGCVANGEVR, peptide start residue: 16) (UniProt O15270)	0.11
LIN7A (peptide sequence: ATVAAFAASEGHSHPR, peptide start residue: 77) (UniProt O14910)	0.122
FANCA (peptide sequence: ASDAVQMQR, peptide start residue: 336) (UniProt O15360)	-0.598
OPLAH (peptide sequence: YVQGFCR, peptide start residue: 248) (UniProt O14841)	-0.461
CASK (peptide sequence: AQFEYDPAKDDLIPCKEAGIR, peptide start residue: 619) (UniProt O14936)	0.146
VWA5A (peptide sequence: DVPRPILLGASAPLK, peptide start residue: 607) (UniProt O00534)	0.177
UniProt O15265 (peptide sequence: AAAAAGGAAAAAAR, peptide start residue: 16)	-0.512
GIPC1 (peptide sequence: SRGPATVEDLPSAFEEK, peptide start residue: 247) (UniProt O14908)	0.0535
CES2 (peptide sequence: ADHGDELPFVFR, peptide start residue: 455) (UniProt O00748)	-0.552
HIP1 (peptide sequence: QVPNPLPK, peptide start residue: 10) (UniProt O00291)	-0.351
CLIC2 (peptide sequence: YRDFDIPAEFSGVWR, peptide start residue: 200) (UniProt O15247)	-0.252
XPO1 (peptide sequence: AVGHPFVIQLGR, peptide start residue: 701) (UniProt O14980)	-0.197
UniProt O15117 (peptide sequence: FKYDGEIR, peptide start residue: 699)	0.284

Given field by field: entries from further up
UniProt A8MW92 (peptide sequence: DQDQIIAGVEKK, peptide start residue: 814)
  log2 fold change: 0.705
OPLAH (peptide sequence: YVQGFCR, peptide start residue: 248) (UniProt O14841)
  log2 fold change: -0.461
HIP1 (peptide sequence: QVPNPLPK, peptide start residue: 10) (UniProt O00291)
  log2 fold change: -0.351
